The values that follow come from PMC6852550.

Amino acid sequences for entries named in this document (tags omitted). A change or cut given only in a name is not applied to a line headed by its entry.
UniProt Q8W5S1: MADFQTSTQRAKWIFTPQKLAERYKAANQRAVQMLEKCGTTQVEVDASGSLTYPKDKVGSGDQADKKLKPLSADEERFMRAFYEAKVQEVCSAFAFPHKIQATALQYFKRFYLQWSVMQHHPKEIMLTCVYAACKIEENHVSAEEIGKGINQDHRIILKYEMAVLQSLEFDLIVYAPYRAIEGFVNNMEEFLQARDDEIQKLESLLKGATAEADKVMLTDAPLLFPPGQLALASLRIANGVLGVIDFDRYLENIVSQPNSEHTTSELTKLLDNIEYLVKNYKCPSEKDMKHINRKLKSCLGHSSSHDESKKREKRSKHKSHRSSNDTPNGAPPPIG
UniProt Q3ECP0: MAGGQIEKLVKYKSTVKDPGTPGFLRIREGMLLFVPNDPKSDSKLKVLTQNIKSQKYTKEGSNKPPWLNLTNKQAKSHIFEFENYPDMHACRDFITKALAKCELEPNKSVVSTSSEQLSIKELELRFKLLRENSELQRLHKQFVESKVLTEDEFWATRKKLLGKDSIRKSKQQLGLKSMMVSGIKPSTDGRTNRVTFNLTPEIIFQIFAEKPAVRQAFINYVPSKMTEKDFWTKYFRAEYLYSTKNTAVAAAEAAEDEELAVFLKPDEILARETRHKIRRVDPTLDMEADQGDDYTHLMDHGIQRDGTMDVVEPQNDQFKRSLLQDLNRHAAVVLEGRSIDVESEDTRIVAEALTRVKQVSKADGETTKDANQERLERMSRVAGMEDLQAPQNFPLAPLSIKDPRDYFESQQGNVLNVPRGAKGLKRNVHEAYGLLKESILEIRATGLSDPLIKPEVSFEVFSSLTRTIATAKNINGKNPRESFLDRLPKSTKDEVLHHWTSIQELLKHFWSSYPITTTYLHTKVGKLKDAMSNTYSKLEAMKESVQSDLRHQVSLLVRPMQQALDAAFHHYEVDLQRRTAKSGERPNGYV

Assay [1] deals with T1, CDKD;2:GFP–PIPL (CYCLIN-… KINASE D;2 with C-terminal GFP and PIPL tag) (Arabidopsis thaliana) (UniProt Q9C9M7).
T1 sequence: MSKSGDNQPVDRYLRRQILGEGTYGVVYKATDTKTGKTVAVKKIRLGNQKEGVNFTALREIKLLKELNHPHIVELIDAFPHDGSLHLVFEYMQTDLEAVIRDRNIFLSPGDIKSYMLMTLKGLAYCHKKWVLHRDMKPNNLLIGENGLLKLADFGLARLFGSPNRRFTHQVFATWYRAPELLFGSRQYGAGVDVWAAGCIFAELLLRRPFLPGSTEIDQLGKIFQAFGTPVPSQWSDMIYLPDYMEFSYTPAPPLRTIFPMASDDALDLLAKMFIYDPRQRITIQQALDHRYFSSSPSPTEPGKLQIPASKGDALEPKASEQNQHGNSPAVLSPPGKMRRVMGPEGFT
In words: affinity purification with mass spectrometry; GFP-Trap agarose on 20 mg protein extract of rosette plants expressing CDKD;2-GFP-PIPL, three biological replicates, controls wild type and YFP-HA plants; washed with 50 mM Tris-HCl pH 7.5, 300 mM NaCl; eluted with 0.1% TFA; LC-MS/MS.

Assay [2] addresses CYCH:mCherry (CYCLIN H with C-terminal mCherry) (Arabidopsis thaliana) (UniProt Q8W5S1). In words: affinity purification with mass spectrometry; RFP-Trap agarose on 20 mg protein extract of rosette plants expressing CYCH-mCherry or HISTONE H3.1:mCherry (each the control of the other) and wild type, three biological replicates; washed with 50 mM Tris-HCl pH 7.5, 300 mM NaCl; on-bead trypsin digestion; LC-MS/MS.

Results are given in words; binding and its absence hold for the method and conditions named. In cells and extracts the contact can be indirect. These calls come from enrichment with a bait or labelling near it, and not all partners need be listed. No binding means not detected with the bait. For part of these data: Tags and fused reporters may be left off the sequences shown.

For “p62 (GTF2H1-2) TFIIH subunit (from UniProt Q3ECP0)”, the binding result in assay [1] and in assay [2] was “binds” throughout.

Regarding “MAT1 (cyclin-dependent kinase-activating kinase assembly factor-related)”, the binding entry in assay [1] is reported as “binds”.

As to “CYCLIN H (CYCH), endogenous (from UniProt Q8W5S1)”, the binding result in assay [1] was “binds”.

B1: XPB2 (3' to 5' helicase XPB subunit of TFIIH) (enzyme, UniProt Q9FUG4 1-766)
chain: MGNDERKRPTKKMKYGGKDDQKMKNIQNVEDYYDDADEDSRDGEGEEKRRDFTDLELKPDHGNRPLWACADGKIFLETFSPLYKQAYDFLIAIAEPVCRPESMHEYNLTPHSLYAAVSVGLETETIISVLNKLSKTKLPGEIIDFIHASTANYGKVKLVLKKNRYFIESPFPEVLKRLLSDDVINRARFTSEPYYGGDGFTIGKTSGELEAGPGELLNEAELAAAAEEKETHSFEIDPALVENVKQRCLPNALNYPMLEEYDFRNDNVNPDLDMELKPHAQPRPYQEKSLSKMFGNGRARSGIIVLPCGAGKSLVGVSAAARIKKSCLCLATNAVSVDQWAYQFKLWSTIKDDQICRFTSDSKERFRGNAGVVVTTYNMIAFGGKRSEEAEKIIEEMRNREWGLLLMDEVHVVPAHMFRKVISITKSHCKLGLTATLVREDEKITDLNFLIGPKLYEANWLDLVKGGFIANVQCAEVWCPMTKEFFAEYLKKENSKKKQALYVMNPNKFRACEFLIRFHEQQRGDKIIVFADNLFALTEYAMKLRKPMIYGATSHIERTKILEAFKTSKTVNTVFLSKVGDNSIDIPEANVIIQISSHAGSRRQEAQRLGRILRAKGKLEDRMAGGKEEYNAFFYSLVSTDTQEMYYSTKRQQFLIDQGYSFKVITSLPPPDAGSSLGYHSQEEQLSLLGKVLNAGDDMVGLEQLEEDTDGKALKTRRSMGSMSAMSGANGRVYMEYNSGRQKSGNQSKKPKDPTKRHNIFKKRYV
B1: the binding result in assay [1] and in assay [2] was “no binding” throughout.

B2: p44 (GTF2H2/TF2H5/TTDA) TFIIH subunit (protein, UniProt Q9ZVN9 1-421)
chain: MSNQRKRSNDEREEEDDEDAEGIGEWERAYVDDRSWEELQEDESGLLRPIDNSAIYHAQYRRRLRMLSAAAAGTRIQKGLIRYLYIVIDFSRAAAEMDFRPSRMAIMAKHVEAFIREFFDQNPLSQIGLVSIKNGVAHTLTDLGGSPETHIKALMGKLEALGDSSLQNALELVHEHLNQVPSYGHREVLILYSALCTCDPGDIMETIQKCKKSKLRCSVIGLSAEMFICKHLCQETGGLYSVAVDEVHLKDLLLEHAPPPPAIAEFAIANLIKMGFPQRAAEGSMAICSCHKEVKIGAGYMCPRCKARVCDLPTECTICGLTLVSSPHLARSYHHLFPIAPFDEVPALSSLNDNRRKLGKSCFGCQQSLIGAGNKPVPCVTCRKCKHYFCLDCDIYIHESLHNCPGCESIHRPKSVSLMEE
On to B2, for which the binding entry in assay [1] and in assay [2] was “binds” each time.

B3: p34 (GTF2H3/TFB4) TFIIH subunit (protein, UniProt Q8LF41 1-301)
chain: MPAIASKQYSDDVSLLVLLLDTNPLFWSTTSITFSQFLSHVLAFLNAVLGLNQLNQVVVIATGYSSCDYIYDSSLTSNHGNFESNGTGMPAIFGSLLKKLEEFVTKDEELSKEEVSEDRIPSCLLSGSLSMALCYIQRVFRSGHLHPQPRILCLQGSPDGPEQYVAVMNSIFSAQRLMVPIDSCYIGVQNSAFLQQASYITGGVHHTPKQLDGLFQYLTTIFATDLHSRGFVQLPKPIGVDFRASCFCHKKTIDMGYICSVCLSIFCEHHKKCSTCGSVFGQSKLDDASSASDKKRKAPST
For B3, the binding entry in assay [1] and in assay [2] was “binds” in each case.

B4: p52 (GTF2H4/TFB2) TFIIH subunit (protein, UniProt Q680U9 1-452)
chain: MPQVKIIAKNFMDMVASLPAIKLDKLYNNVFICEAILRSLPPLAKKYVLQMLYIDVPVPATMMEEWVLADGTSKHRVAIDRLIQLRIFSEISDRKRGTSYSLNPTFQNNLQKHIISGGVLPREPMNSDNAIKLPSLQELETYALKQWECFLLQLINSGQGEKLTGISSSMMKIFQRGLLSQRDKDGPRLTESGFQFLLMDTNAQLWYIIREYILNAEERDVDPADLISFLLELSFHVTGQAYNLNTLTEVQNNTLKDLADLGLVKLQQGRKDSWFIPTKLATNLSVSLADSSARKEGFVVMETNFRMYAYSTSKLQCEILRLFARIEYQLPNLIACAITKESLYNAFDNGITSDQIITFLQQNSHPRCADRVPSIPENVTDQIRLWETDLQRIEMTQAHFYDEFPSKDVFEAACDFAREWRGLLWEDSKRMRLVVKSEVHNQMREFLHTQSR
Regarding B4, the binding entry in assay [1] and in assay [2] was “binds” each time.

B5: CDKD;2, endogenous (enzyme, UniProt Q9C9M7 1-348)
chain: MSKSGDNQPVDRYLRRQILGEGTYGVVYKATDTKTGKTVAVKKIRLGNQKEGVNFTALREIKLLKELNHPHIVELIDAFPHDGSLHLVFEYMQTDLEAVIRDRNIFLSPGDIKSYMLMTLKGLAYCHKKWVLHRDMKPNNLLIGENGLLKLADFGLARLFGSPNRRFTHQVFATWYRAPELLFGSRQYGAGVDVWAAGCIFAELLLRRPFLPGSTEIDQLGKIFQAFGTPVPSQWSDMIYLPDYMEFSYTPAPPLRTIFPMASDDALDLLAKMFIYDPRQRITIQQALDHRYFSSSPSPTEPGKLQIPASKGDALEPKASEQNQHGNSPAVLSPPGKMRRVMGPEGFT
Consider B5, for which, in assay [2], the binding entry is reported as “binds”.

B6: CDKF;1, endogenous (enzyme, UniProt O80345 1-479)
chain: MDKQPATSWSIHTRPEIIAKYEIFERVGSGAYADVYRARRLSDGLIVALKEIFDYQSAFREIDALTILNGSPNVVVMHEYFWREEENAVLVLEFLRSDLAAVIRDGKRKKKVEGGDGFSVGEIKRWMIQILTGVDACHRNLIVHRDLKPGNMLISDDGVLKLADFGQARILMEHDIVASDENQQAYKLEDKDGETSEPPEVIPDYENSPRQGSDGQEREAMSKDEYFRQVEELKAKQVVRDDTDKDSNVHDGDISCLATCTVSEMDDDLGRNSFSYDADEAVDDTQGLMTSCVGTRWFRPPELLYGSTMYGLEVDLWSLGCVFAELLSLEPLFPGISDIDQISRVTNVLGNLNEEVWPGCVDLPDYKSISFAKVESPLGIEGCLPNHSGDVISLLKKLICYDPASRATTMEMLNDKYLSEEPLPVPVSELYVPPTMSGPDEDSPRKWNDYREMDSDSDFDGFGPMNVKPTSSGFTIEFP
Regarding B6, the binding entry in assay [1] is on record as “binds”; in assay [2] it was “no binding”.

B7: XPB1 (3' to 5' helicase XPB subunit of TFIIH) (enzyme, UniProt Q38861 1-767)
chain: MGNGERGRPNKKMKYGGKDDQKMKNIQNAEDYYDDADEDSRDGEGEEKKRDFTKLELKPDHGNRPLWACADGRIFLETFSPLYKQAYDFLIAIAEPVCRPESMHEYNLTPHSLYAAVSVGLETETIISVLNKLSKTKLPKEMIEFIHASTANYGKVKLVLKKNRYFIESPFPEVLKRLLSDDVINRARFSSEPYYGGDGFSVGRTCGELEAGPGELLNEAEFAAAAEEKETHSFEIDPAQVENVKQRCLPNALNYPMLEEYDFRNDNVNPDLDMELKPHAQPRPYQEKSLSKMFGNGRARSGIIVLPCGAGKSLVGVSAAARIKKSCLCLATNAVSVDQWAFQFKLWSTIRDDQICRFTSDSKERFRGNAGVVVTTYNMVAFGGKRSEESEKIIEEMRNREWGLLLMDEVHVVPAHMFRKVISITKSHCKLGLTATLVREDERITDLNFLIGPKLYEANWLDLVKGGFIANVQCAEVWCPMTKEFFAEYLKKENSKKKQALYVMNPNKFRACEFLIRFHEQQRGDKIIVFADNLFALTEYAMKLRKPMIYGATSHIERTKILEAFKTSKDVNTVFLSKVGDNSIDIPEANVIIQISSHAGSRRQEAQRLGRILRAKGKLEDRMAGGKEEYNAFFYSLVSTDTQEMYYSTKRQQFLIDQGYSFKVITSLPPPDAGSSLSYHSQEEQLSLLGKVMNAGDDLVGLEQLEEDTDGMALQKARRSMGSMSVMSGSKGMVYMEYNSGRHKSGQQFKKPKDPTKRHNLFKKRYV
Take B7: the binding entry in assay [1] and in assay [2] was “no binding” throughout.

B8: XPD (5' to 3' helicase XERODERMA PIGMENTOSUM GROUP D) (enzyme, UniProt Q8W4M7 1-758)
chain: MIFKIEDVTVYFPYDNIYPEQYEYMVELKRALDAKGHCLLEMPTGTGKTIALLSLITSYRLSRPDSPIKLVYCTRTVHEMEKTLGELKLLHDYQVRHLGTQAKILALGLSSRKNLCVNTKVLAAENRDSVDAACRKRTASWVRALSTENPNVELCDFFENYEKAAENALLPPGVYTLEDLRAFGKNRGWCPYFLARHMIQFANVIVYSYQYLLDPKVAGFISKELQKESVVVFDEAHNIDNVCIEALSVSVRRVTLEGANRNLNKIRQEIDRFKATDAGRLRAEYNRLVEGLALRGDLSGGDQWLANPALPHDILKEAVPGNIRRAEHFVHVLRRLLQYLGVRLDTENVEKESPVSFVSSLNSQAGIEQKTLKFCYDRLQSLMLTLEITDTDEFLPIQTVCDFATLVGTYARGFSIIIEPYDERMPHIPDPILQLSCHDASLAIKPVFDRFQSVVITSGTLSPIDLYPRLLNFTPVVSRSFKMSMTRDCICPMVLTRGSDQLPVSTKFDMRSDPGVVRNYGKLLVEMVSIVPDGVVCFFVSYSYMDGIIATWNETGILKEIMQQKLVFIETQDVVETTLALDNYRRACDCGRGAVFFSVARGKVAEGIDFDRHYGRLVVMYGVPFQYTLSKILRARLEYLHDTFQIKEGDFLTFDALRQAAQCVGRVIRSKADYGMMIFADKRYSRHDKRSKLPGWILSHLRDAHLNLSTDMAIHIAREFLRKMAQPYDKAGTMGRKTLLTQEDLEKMAETGVQDMAY
On to B8, for which the binding result in assay [1] is reported as “binds”.
